Data reported in patent US9532569B2 (INSTITUT NATIONAL DE LA RECHERCHE AGRONOMIQUE, priority 2012, dated 2017).
At least one structure is not confirmed: it was looked up by name or label, or the drawing left a doubt.

How the values were obtained:
pea rms1 mutants = assay: Hydroponic culture test in pea; type: in vivo, Pisum sativum L.; settings: 1 μM in hydroponic culture solution, 8 days
Experimental: For this example, ramosus (rms1) hyperbranched pea (Pisum sativum L.) mutants were used.
More particularly, rms1 (rms1-10) hyperbranched mutant plants were used. The nutritive solution (100%) was prepared by adding the following macronutrients to 1000 l of water: HNO3 (0.28 l), (NH4)2HPO4 (120 g), Ca(NO3)2 (40 g), Mg(NO3)2 (140 g), KNO3 (550 g), (NH4)2MoO4 (0.05 g), H3BO3 (15 g), MnSO4.H2O (2 g), ZnSO4.7H2O (1 g), CuSO4.5H2O (0.25 g), Sequestrene® (10 g) (Fe-EDTA solution). The pea seeds were germinated in moist sand for 6 days, then placed in holes of a lid (35 holes/lid, 20 mm in diameter) of an opaque PVC pot containing the hydroponic culture solution (47 l, pH 5.8).
In a first experiment, acetone or the compound to be tested (dissolved in acetone) was added to the hydroponic culture solution so as to obtain a final concentration of 0 or 1 μM of compound to be tested and 0.01% of acetone.
The hydroponic culture solution was continually aerated by means of an aquarium pump and replaced each week. 8 days after the start of the treatment, the lengths of bud/branch (nodes 1 to 6) were measured with an electronic sliding caliper.
This experiment was carried out for the compounds according to the invention (IIa) and (IIIb), and also the GR24 compound as comparative compound. A negative control (<<CTL 0>>), corresponding to a treatment with the solvent alone, was also carried out. […]

pea mutant rms1 = assay: Inhibition of branching in the pea, application directly on the axillary bud; type: in vivo, Pisum sativum L.; settings: 100 nM and 1 μM
Experimental: Generally, in the pea, the first two scales are considered to be the first two nodes, the cotyledonary node being node 0.
The rms1 mutant is an “SMS” signal biosynthesis mutant, repressing branching of the plant.
Tests for activity on the inhibition of branching were carried out in the following way.
The strigolactone-deficient rms1 (ccd8) pea mutants described in Beveridge et al., 1997, were used for the test (M3T884 line derived from the Térèse variety).
The activity of the compounds (IIa), (II′d) and (II′e) in accordance with the invention and of the comparative compound GR24 was evaluated at respective doses of 10 nM, 100 nM and 1 μM, by treatment at node 3. […]
24 plants were sown per treatment. […]
The activity of the compounds (IIa), (IIb), (IIc), (II′d), (II′e) and (II′f) in accordance with the invention was evaluated at respective doses of 100 nM and 1 μM, by treatment at node 3. […]
The activity of the compounds (IIa), (IIIa), (IIIb) and (IIIc) in accordance with the invention, and also of GR24 as comparative compound, was evaluated at respective doses of 100 nM and 1 μM, by treatment at node 3, according to the protocol described above with reference to experiment 2. […]
The sprouting of the axillary buds at node 4 was measured 8 days after the treatment by means of a digital sliding caliper. […]

COC(=O)/C=C/C(C)=C/OC1OC(=O)C(C)=C1C (stereo not shown) [Compound (IIIb)]
length of the branches at nodes 3 to 5 (pea rms1 mutants; FIG. 11): activity of the compounds in accordance with the invention (IIa) and (IIIb) on all the branches of nodes 3 to 5
plant height (pea rms1 mutants; FIG. 12): greater for the compound in accordance with the invention (IIIb)
bud growth inhibition (length of bud/branch at node 3, 8 days after treatment at node 3) (pea mutant rms1; Experiment 3, FIG. 5): activity similar to that of the comparative compound GR24
activity (length of bud/branch at node 3, 8 days after treatment at node 3) (pea mutant rms1; Experiment 4, FIG. 6, 1 nM, 10 nM): greater activity than that of the comparative compound GR24, in particular at the lowest doses
